These are yes or no findings as the source states them, for the method shown. Some entries that bind do so weakly or less than the wild type.
Columns and labels:
[1] = molecular target: T1, recombinant human integrin α4β7 (R&D Systems) (human) (UniProt P13612+P26010); assay: summary at the head of the examples
[2] = molecular target: T1, recombinant human integrin α4β7 (R&D Systems) (human); assay: summary of the cell adhesion assay on coated α4β7
[3] = molecular target: T1, recombinant human integrin α4β7 (R&D Systems) (human); assay: Giemsa staining of the wells of the cell adhesion assay
[4] = molecular target: T1, recombinant human integrin α4β7 (R&D Systems) (human); assay: adhesion of transduced L929 cells to wells coated with recombinant α4β7, percent adherent cells

By UniProt entry, the sequences of proteins in these tests, tags left out. Where a name states a change or a piece, a line headed by the entry shows the natural chain unless it says otherwise.
UniProt P13612: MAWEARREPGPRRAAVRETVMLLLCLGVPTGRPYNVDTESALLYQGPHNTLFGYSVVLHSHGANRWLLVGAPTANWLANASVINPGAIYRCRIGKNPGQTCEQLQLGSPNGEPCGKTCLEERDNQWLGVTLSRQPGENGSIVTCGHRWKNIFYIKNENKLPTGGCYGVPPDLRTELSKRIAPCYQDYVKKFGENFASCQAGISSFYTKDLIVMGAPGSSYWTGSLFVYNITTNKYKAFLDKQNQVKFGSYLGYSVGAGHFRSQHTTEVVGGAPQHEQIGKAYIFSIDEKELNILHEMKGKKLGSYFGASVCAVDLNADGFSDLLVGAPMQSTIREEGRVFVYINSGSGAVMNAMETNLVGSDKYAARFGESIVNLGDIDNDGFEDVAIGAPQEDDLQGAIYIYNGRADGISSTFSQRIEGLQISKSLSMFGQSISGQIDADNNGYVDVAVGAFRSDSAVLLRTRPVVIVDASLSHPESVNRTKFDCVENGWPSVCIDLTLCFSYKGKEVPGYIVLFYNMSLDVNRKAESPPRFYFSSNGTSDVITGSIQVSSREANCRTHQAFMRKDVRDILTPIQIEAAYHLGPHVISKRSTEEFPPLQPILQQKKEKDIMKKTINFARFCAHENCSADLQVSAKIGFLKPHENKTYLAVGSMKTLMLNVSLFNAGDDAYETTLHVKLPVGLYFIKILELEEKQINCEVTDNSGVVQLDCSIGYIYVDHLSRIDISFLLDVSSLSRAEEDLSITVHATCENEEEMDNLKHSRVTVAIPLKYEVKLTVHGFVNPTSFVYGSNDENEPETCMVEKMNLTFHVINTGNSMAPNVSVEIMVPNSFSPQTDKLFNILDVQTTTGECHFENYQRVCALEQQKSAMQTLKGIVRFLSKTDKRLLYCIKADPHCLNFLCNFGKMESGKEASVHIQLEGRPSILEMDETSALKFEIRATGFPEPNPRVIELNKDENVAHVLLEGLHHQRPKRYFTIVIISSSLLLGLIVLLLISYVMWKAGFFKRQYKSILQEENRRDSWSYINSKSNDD
UniProt P26010: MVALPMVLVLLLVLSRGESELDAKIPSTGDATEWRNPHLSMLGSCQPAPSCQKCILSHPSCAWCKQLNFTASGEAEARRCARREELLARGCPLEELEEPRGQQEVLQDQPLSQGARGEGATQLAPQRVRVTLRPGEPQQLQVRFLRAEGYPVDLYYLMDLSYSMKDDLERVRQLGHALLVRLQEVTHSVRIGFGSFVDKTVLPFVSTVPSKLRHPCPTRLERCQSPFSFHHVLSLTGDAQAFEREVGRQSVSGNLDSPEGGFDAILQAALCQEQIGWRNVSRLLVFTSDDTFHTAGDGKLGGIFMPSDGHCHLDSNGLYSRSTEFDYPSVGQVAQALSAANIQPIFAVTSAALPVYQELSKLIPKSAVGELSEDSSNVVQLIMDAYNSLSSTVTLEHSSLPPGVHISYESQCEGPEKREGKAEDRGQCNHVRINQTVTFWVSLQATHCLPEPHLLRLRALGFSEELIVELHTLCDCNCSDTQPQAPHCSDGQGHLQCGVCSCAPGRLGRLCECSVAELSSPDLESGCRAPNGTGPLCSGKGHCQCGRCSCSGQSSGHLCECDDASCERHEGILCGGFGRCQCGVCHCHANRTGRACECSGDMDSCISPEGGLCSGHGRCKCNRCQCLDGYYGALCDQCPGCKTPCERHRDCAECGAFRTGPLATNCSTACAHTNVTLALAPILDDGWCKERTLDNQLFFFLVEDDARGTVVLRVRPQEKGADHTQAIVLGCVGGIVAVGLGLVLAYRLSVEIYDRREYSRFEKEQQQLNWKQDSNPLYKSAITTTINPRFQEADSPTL

Measured: binding

B1: human CDH26 (cadherin 26) expressed on transduced cells (receptor)
chain: DSVQQETDDLTKQTKEKIYQPLRRSKRRWVITTLELEEEDPGPFPKLIGELFNNMSYNMSLMYLISGPGVDEYPEIGLFSLEDHENGRIYVHRPVDREMTPSFTVYFDVVERSTGKIVDTSLIFNIRISDVNDHAPQFPEKEFNITVQENQSAGQPIFQMLAVDLDEENTPNSQVLYFLISQTPLLKESGFRVDRLSGEIRLSGCLDYETAPQFTLLIRARDCGEPSLSSTTTVHVDVQEGNNHRPAFTQENYKVQIPEGRASQGVLRLLVQDRDSPFTSAWRAKFNILHGNEEGHFDISTDPETNEGILNVIKPLDYETRPAQSLIIVVENEERLVFCERGKLQPPRKAAASATVSVQVTDANDPPAFHPQSFIVNKEEGARPGTLLGTFNAMDPDSQIRYELVHDPANWVSVDKNSGVVITVEPIDRESPHVNNSFYVIIIHAVDDGFPPQTATGTLMLFLSDINDNVPTLRPRSRYMEVCESAVHEPLHIEAEDPDLEPFSDPFTFELDNTWGNAEDTWKLGRNWGQSVELLTLRSLPRGNYLVPLFIGDKQGLSQKQTVHVRICPCASGLTCVELADAEVGLHVGALFPVCAAFVALAVALLFLLRCYFVLEPKRHGCSVSNDEGHQTLVMYNAESKGTSAQTWSDVEGQRPALLICTAAAGPTQGVKDLEEVPPSAASQSAQARCALGSWGYGKPFEPRSVKNIHSTPAYPDATMHRQLLAPVEGRMAETLNQKLHVANVLEDDPGYLPHVYSEEGECGGAPSLSSLASLEQELQPDLLDSLGSKATPFEEIYSESGVPS
binds: all assays above

From patent US20180148492A1 (CHILDREN S HOSPITAL MEDICAL CENTER, published 2018)
